The record followed here is publication PMC5095591.

Protein sequences, listed by entry. Tags and fused reporters are not part of them. Lines headed by an entry give the natural chain unless they say otherwise; changes in a name come on top.
UniProt Q9CTN5: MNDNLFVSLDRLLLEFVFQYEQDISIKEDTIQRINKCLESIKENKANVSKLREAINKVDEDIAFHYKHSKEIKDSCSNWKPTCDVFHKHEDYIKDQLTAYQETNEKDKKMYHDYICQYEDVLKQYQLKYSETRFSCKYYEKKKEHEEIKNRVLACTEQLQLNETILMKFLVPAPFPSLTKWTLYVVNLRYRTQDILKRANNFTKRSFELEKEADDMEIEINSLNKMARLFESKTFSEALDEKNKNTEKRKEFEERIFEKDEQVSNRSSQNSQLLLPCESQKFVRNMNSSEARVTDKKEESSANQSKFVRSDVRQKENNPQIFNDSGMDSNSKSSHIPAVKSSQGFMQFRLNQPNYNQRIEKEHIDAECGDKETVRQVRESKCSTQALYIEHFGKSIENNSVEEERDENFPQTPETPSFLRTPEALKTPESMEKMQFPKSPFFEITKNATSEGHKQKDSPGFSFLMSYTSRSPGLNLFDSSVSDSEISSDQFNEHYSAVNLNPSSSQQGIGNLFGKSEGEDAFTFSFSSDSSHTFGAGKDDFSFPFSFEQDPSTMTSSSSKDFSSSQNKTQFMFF

Holding throughout (assay): co-IP; HEK 293T cells transiently co-transfected; whole cell extracts cleared with protein G Sepharose; immunoprecipitation with anti-Flag, anti-EGFP or anti-Myc antibody; western blotting
For orientation: Immunoblotting shows a protein as a band on a membrane.

In assay [1] the target is GFP-SIX6OS1 (mouse) (UniProt Q9CTN5).
Assay [2] deals with T1, Myc-SYCE1 (mouse) (UniProt Q9D495).
T1 sequence: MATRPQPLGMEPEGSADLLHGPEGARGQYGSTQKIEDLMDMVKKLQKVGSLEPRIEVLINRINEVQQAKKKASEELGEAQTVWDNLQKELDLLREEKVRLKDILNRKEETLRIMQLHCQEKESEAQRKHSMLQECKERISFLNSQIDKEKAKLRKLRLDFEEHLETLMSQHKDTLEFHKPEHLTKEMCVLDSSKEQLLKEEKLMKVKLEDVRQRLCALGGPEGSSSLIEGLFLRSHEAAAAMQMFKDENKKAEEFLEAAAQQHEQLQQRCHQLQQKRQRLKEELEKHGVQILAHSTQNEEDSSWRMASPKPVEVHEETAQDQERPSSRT

For assay [3], the target named is SIX6OS1 C-terminal half (287-574) (mouse).
The target in assay [4] is SIX6OS1 N-terminal half (1-286) (mouse) (UniProt Q9CTN5).

These are yes or no findings as the source states them, for the method shown. In cells and extracts the contact can be indirect. For part of these data: Binding calls can cover weak binding; strength is not graded here. Where a sequence is shown, tags or fusion partners need not be part of it.

With SIX6OS1-Flag (from UniProt Q9CTN5), in assay [1], the binding entry is recorded as “binds”.

For GFP-SIX6OS1 (from UniProt Q9CTN5), the binding entry in assay [2] is on record as “binds”.

B1: TEX12 (protein, UniProt Q9CR81 1-123)
chain: MMANHLVKPDSRNCKRARELEPQVSDSPQVSSLGKSESSLSEASGLFYKEEALEKDLSDMSKEINLMLSTYAKILSERAAVDASYIDEIDGLFKEANIIENFLVQKREFLKQRFTVITNTLHK
Turning to B1, in assay [1], the binding entry is recorded as “no binding”.

B2: REC8 (protein, UniProt Q8C5S7 1-591)
chain: MFYYPNVLQRHTGCFATIWLAATRGSRLVKREYLNVNVVKTCEEILNYVLVRVQPPVAGLPRPRFSLYLSAQLQIGVIRVYFQQCQYLVEDIQHILEHLHRAQLRIRIDMEEADLPSLLLPNCLAMMETLEDAPEPFFGKMSVDPRLPSPFDIPQIRHLLEAATPEKTRKETLPEATPDPRKPDRTLATVQSPEVITLQEAEPIRMLQIEGEQDLPEISRGDLELLIAEKDDAILLEERQRGRLLRQRRASLPLDESREEPRALEGAGLVSALSPPAPAQVEGIQEALPGQVFPPEVQKMTGWEPGALLTEVTPPQELRLPAPPSTEKRLPSLQRPLPRRHRRRQLLFWDKETQISREKFEEQLQTGAHCWEYPVAQPPKRMLTSPAELFRTPTLSGWLPPELLGLWTHCAQVPQRMLRQRPQLETEETVEEERAADEEERRKTEALSEIEVLREAQEPSGPLMLSSELSLEAAEDEKSRTSLIPPEWWAWSEEGQPEPPALPMLPELPEVPMEMPPRPELSSEAVLRAVALKLQANKELDFSSLVPPLSPRKLASRVFYLLLVLSTQKILLVEQQKPYGPLLIRPGPKFP
Take B2: in assay [1], the binding entry is on record as “no binding”.

B3: SYCP3 (protein, UniProt P70281 1-254)
chain: MLRGCGDSDSSPEPLSKHLKMVPGGRKHSGKSGKPPLVDQPKKAFDFEKDDKDLSGSEEDVADEKAPVIDKHGKKRSAGIIEDVGGEVQNMLEKFGADINKALLAKRKRIEMYTKASFKASNQKIEQIWKTQQEEIQKLNNEYSQQFMNVLQQWELDIQKFEEQGEKLSNLFRQQQKIFQQSRIVQSQRMFAMKQIHEQFIKSLEDVEKNNDNLFTGTQSELKKEMAMLQKKVMMETQQQEMANVRKSLQSMLF
Regarding B3, the binding entry in assay [1] was “no binding”.

B4: Myc-SYCE1 (protein, UniProt Q9D495 1-329)
chain: MATRPQPLGMEPEGSADLLHGPEGARGQYGSTQKIEDLMDMVKKLQKVGSLEPRIEVLINRINEVQQAKKKASEELGEAQTVWDNLQKELDLLREEKVRLKDILNRKEETLRIMQLHCQEKESEAQRKHSMLQECKERISFLNSQIDKEKAKLRKLRLDFEEHLETLMSQHKDTLEFHKPEHLTKEMCVLDSSKEQLLKEEKLMKVKLEDVRQRLCALGGPEGSSSLIEGLFLRSHEAAAAMQMFKDENKKAEEFLEAAAQQHEQLQQRCHQLQQKRQRLKEELEKHGVQILAHSTQNEEDSSWRMASPKPVEVHEETAQDQERPSSRT
Turning to B4, the binding result is reported as “no binding” in assay [3], “binds” in assay [1] and “binds” in assay [4].

B5: Sororin (protein, UniProt Q9CPY3 1-264)
chain: MAERRTRSGGAAQRSGPRTSLTKPSKSSKRKSGSDLPNSFSEIWPRTTPAVPVRKAIVLKKIVAHAVEVPDVHTVRRSPRISFILEKENNPPLKVPTKEDLFKTCSVPGTPSSTPVLYTQNVEPDSGEAELDSRDLEMSQKVRRSYSRLQSLGCASTSTPGRRSFFGFEGPDDLPGVSPVVCSKLIETPKVPAKDLVPARTKDLVPDSTKDLVPARTLPGISPPVVKEKRKKKVPEILKSELDKWAVAMNAEFEAAEQFELLIE
With B5, the binding result in assay [1] is reported as “no binding”.

B6: SYCE3 (protein, UniProt B5KM66 1-88)
chain: MADSDPGERSYDNMLKMLSDLNKDLEKLLEEMEKISVQATWMAYDMVVMRTNPTLAESMRRLEDAFLNCKEEMEKNWQELLTETKRKQ
On to B6, for which, in assay [1], the binding entry is given as “no binding”.

B7: SYCP1 (protein, UniProt Q62209 1-993)
chain: MEKQKPFTLFVPPRLSSSQVSAVKPQTAGGDSNYFKTANKCTEGDFGVPFTMSSRENIDKDPAFQKLSILPMLEQVANSGSCHYQEGVNDSDFENSEPMSRLYSKLYKEAEKIKKWKVSIESELKQKENKLQENRKIIEAQRKAIQELQFENEKVSLKLEEEIQENKDLIKENNATIHWCNLLKETCARSAEKTNKYEYEREETRQVYVDLNSNIEKMILAFEELRVQAENARLEMHFKLKEDHEKIQHLEEEYQKEVNNKENQVSELLIQSAEKENKMKDLTFLLEESRDKANQLEEKTKLQDENLKELSEKKDHLTSELEDIKMSMQRSMSTQKALEEDLQIATKTISQLTEVKEAQMEELNKAKTTHSFVVTELKATTCTLEELLRTEQQRLEKNEDQLKLITVELQKKSNELEEMTKFKNNKEVELEELKNILAEDQKLLDEKKQVEKLAEELQEKEQELTFLLETREKEVHDLQEQVTVTKTSEQHYLKQVEEMKTELEKEKLKNTELTASCDMLLLENKKFVQEASDMALELKKHQEDIINCKKQEERLLKQIENLEEKEMHLRDELESVRKEFIQQGDEVKCKLDKSEENARSIECEVLKKEKQMKILESKCNNLKKQVENKSKNIEELHQENKTLKKKSSAEIKQLNAYEIKVSKLELELESTKQRFEEMTNNYQKEIENKKISEGKLLGEVEKAKATVDEAVKLQKEIDLRCQHKIAEMVALMEKHKHQYDKIVEERDSELGLYKNREQEQSSAKIALETELSNIRNELVSLKKQLEIEKEEKEKLKMAKENTAILKDKKDKKIQASLLESPEATSWKFDSKTTPSQNISRLSSSMDSGKSKDNRDNLRASAKSILPTTVTKEYTVKTPTKKSIYQRENKYIPTGGSNKKRKTAFEFDVNSDSSETADLLSLVSEEDVSNRLYDNNPPDSHLLVKTPKQTPLSLSTPASFMKFGSLKKMREDRWTTIAKIDRKRRLKEAEKLFS
As to B7, the binding result in assay [1] is “no binding”.

B8: SYCE2 (protein, UniProt Q505B8 1-171)
chain: MERHGVAAPPVELKDQEPPAIVESGEHRQSENHEETPGSVAPSASCQLPGPFSSLDSSIETLKKKAQELIENINESRQKDHALMTNFRDSLKMKVSDLTEKLEERMYQVYSHHSKIIQERLQEFTQKMAKINHLEMELKQVCQTVETVYKDLCVQSEVPTCEEQNYKDGEC
As to B8, the binding entry in assay [1] was “no binding”.
